# Structures can show the parent of a compound that is named as a salt. The list shows a part of the results. Most entries show no effect beyond the scatter of the controls.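 Using flow cytometry, the assay measures the median γH2AX antibody signal in S-phase Reh cells (a human leukemia line). Each score is the number of standard deviations from the median difference of paired plate sets. Candidate hits scored above 2.5; compounds scoring below -2 lowered MK1775-induced damage.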
# Tested on: Reh
# Experiment: Z' of S-phase gammaH2AX difference (drug + MK1775 minus drug alone) (Z-score); higher = stronger synergistic S-phase DNA damage with MK1775
# Settings: MK1775 concentration 400 nM; first compound 10 µM; 4 h
row,Structure (SMILES),Z' of S-phase gammaH2AX difference (Z-score)
1,C[C@@]12C(=O)OC(=O)[C@]1(C)[C@H]1CC[C@@H]2O1 [Cantharidin] + C=CCn1c(=O)c2cnc(Nc3ccc(N4CCN(C)CC4)cc3)nc2n1-c1cccc(C(C)(C)O)n1 [MK1775],inactive: 1.5
2,"C[C@]12CCC(=O)C=C1CC[C@@H]1[C@@H]2CC[C@]2(C)C(=O)CC[C@@H]12 [4-Androstene-3,17-dione] + C=CCn1c(=O)c2cnc(Nc3ccc(N4CCN(C)CC4)cc3)nc2n1-c1cccc(C(C)(C)O)n1 [MK1775]",inactive: 0.287
3,"NC1CCc2cc(O)c(O)cc2C1 (stereo unspecified) [6,7-ADTN hydrobromide] + C=CCn1c(=O)c2cnc(Nc3ccc(N4CCN(C)CC4)cc3)nc2n1-c1cccc(C(C)(C)O)n1 [MK1775]",inactive: 0.615
4,C[C@H]1OC[C@@H](C[N+](C)(C)C)O1 [(+)-cis-Dioxolane iodide] + C=CCn1c(=O)c2cnc(Nc3ccc(N4CCN(C)CC4)cc3)nc2n1-c1cccc(C(C)(C)O)n1 [MK1775],inactive: -0.421
5,c1ccc2sc(C3(N4CCCCC4)CCCCC3)cc2c1 [BTCP hydrochloride] + C=CCn1c(=O)c2cnc(Nc3ccc(N4CCN(C)CC4)cc3)nc2n1-c1cccc(C(C)(C)O)n1 [MK1775],inactive: -0.344
6,N#C/C(=C\c1ccc(O)c(O)c1)C(N)=S [Tyrphostin 47] + C=CCn1c(=O)c2cnc(Nc3ccc(N4CCN(C)CC4)cc3)nc2n1-c1cccc(C(C)(C)O)n1 [MK1775],inactive: -0.39
7,C[N+]1(C)C2CCC1CC(OC(=O)c1c[nH]c3ccccc13)C2 (stereo unspecified) [3-Tropanylindole-3-carboxylate methiodide] + C=CCn1c(=O)c2cnc(Nc3ccc(N4CCN(C)CC4)cc3)nc2n1-c1cccc(C(C)(C)O)n1 [MK1775],inactive: -1.18
8,"CC(O)C(C)OC(=O)[C@@H]1C[C@@H]2c3cccc4c3c(cn4C(C)C)C[C@H]2N(C)C1 (stereo partly specified) [LY-53,857 maleate] + C=CCn1c(=O)c2cnc(Nc3ccc(N4CCN(C)CC4)cc3)nc2n1-c1cccc(C(C)(C)O)n1 [MK1775]",inactive: 0.383
9,"CCCC[N+]1(C)[C@@H]2C[C@@H](OC(=O)[C@H](CO)c3ccccc3)C[C@H]1[C@@H]1O[C@@H]12 (single isomer, unassigned; (-)) [(-)-Scopolamine,n-Butyl-, bromide] + C=CCn1c(=O)c2cnc(Nc3ccc(N4CCN(C)CC4)cc3)nc2n1-c1cccc(C(C)(C)O)n1 [MK1775]",inactive: 0.129
10,COc1ccc(OC)c(C(O)C(C)N)c1 (stereo unspecified) [Methoxamine hydrochloride] + C=CCn1c(=O)c2cnc(Nc3ccc(N4CCN(C)CC4)cc3)nc2n1-c1cccc(C(C)(C)O)n1 [MK1775],inactive: -0.218
11,O=S1(=O)N(CCN2CC=C(c3c[nH]c4cc(F)ccc34)CC2)c2cccc3c2N1CCC3 + C=CCn1c(=O)c2cnc(Nc3ccc(N4CCN(C)CC4)cc3)nc2n1-c1cccc(C(C)(C)O)n1 [MK1775],inactive: -0.197
12,N#CC(C#N)=Cc1ccc([N+](=O)[O-])c(O)c1 [Tyrphostin AG 126] + C=CCn1c(=O)c2cnc(Nc3ccc(N4CCN(C)CC4)cc3)nc2n1-c1cccc(C(C)(C)O)n1 [MK1775],inactive: -1.15
13,NCCCNCCSP(=O)(O)O [Amifostine] + C=CCn1c(=O)c2cnc(Nc3ccc(N4CCN(C)CC4)cc3)nc2n1-c1cccc(C(C)(C)O)n1 [MK1775],inactive: 0.0301
14,"Clc1ccc(N2CCN(Cc3c[nH]c4ncccc34)CC2)cc1 [L-745,870 hydrochloride] + C=CCn1c(=O)c2cnc(Nc3ccc(N4CCN(C)CC4)cc3)nc2n1-c1cccc(C(C)(C)O)n1 [MK1775]",inactive: 0.335
15,CCn1cnc2c(Nc3cccc(Cl)c3)nc(N[C@@H]3CCCC[C@@H]3N)nc21 + C=CCn1c(=O)c2cnc(Nc3ccc(N4CCN(C)CC4)cc3)nc2n1-c1cccc(C(C)(C)O)n1 [MK1775],inactive: -2.08
16,NCCc1c[nH]c2ccc(C(N)=O)cc12 [5-Carboxamidotryptamine maleate] + C=CCn1c(=O)c2cnc(Nc3ccc(N4CCN(C)CC4)cc3)nc2n1-c1cccc(C(C)(C)O)n1 [MK1775],inactive: 0.378
17,CCCCCCCCC(=O)NCc1ccc(O)c(OC)c1 [N-Vanillylnonanamide] + C=CCn1c(=O)c2cnc(Nc3ccc(N4CCN(C)CC4)cc3)nc2n1-c1cccc(C(C)(C)O)n1 [MK1775],inactive: -2.44
18,CC1=C2C[C@H]3[C@@H](CC=C4C[C@@H](O)CC[C@@]43C)[C@@H]2CC[C@]12O[C@@H]1C[C@H](C)CN[C@H]1[C@H]2C [Cyclopamine] + C=CCn1c(=O)c2cnc(Nc3ccc(N4CCN(C)CC4)cc3)nc2n1-c1cccc(C(C)(C)O)n1 [MK1775],inactive: 0.137
19,CC(=O)NCCc1c[nH]c2ccccc12 [N-Acetyltryptamine] + C=CCn1c(=O)c2cnc(Nc3ccc(N4CCN(C)CC4)cc3)nc2n1-c1cccc(C(C)(C)O)n1 [MK1775],inactive: 0.1
20,C=CCN1CC[C@]23CCCC[C@H]2[C@H]1Cc1ccc(O)cc13 [Levallorphan tartrate] + C=CCn1c(=O)c2cnc(Nc3ccc(N4CCN(C)CC4)cc3)nc2n1-c1cccc(C(C)(C)O)n1 [MK1775],inactive: 0.878
21,Cc1cc2c(C(C)C)c(O)c(O)c(C=O)c2c(O)c1-c1c(C)cc2c(C(C)C)c(O)c(O)c(C=O)c2c1O [Gossypol] + C=CCn1c(=O)c2cnc(Nc3ccc(N4CCN(C)CC4)cc3)nc2n1-c1cccc(C(C)(C)O)n1 [MK1775],inactive: -0.0894
22,O=c1[nH]c2ccccc2n1C1CCN(CCCC(c2ccc(F)cc2)c2ccc(F)cc2)CC1 [Pimozide] + C=CCn1c(=O)c2cnc(Nc3ccc(N4CCN(C)CC4)cc3)nc2n1-c1cccc(C(C)(C)O)n1 [MK1775],inactive: 0.752
23,CN(C)C(=O)Oc1ccc[n+](C)c1 [Pyridostigmine bromide] + C=CCn1c(=O)c2cnc(Nc3ccc(N4CCN(C)CC4)cc3)nc2n1-c1cccc(C(C)(C)O)n1 [MK1775],inactive: -0.403

row,Structure (SMILES),Z' of S-phase gammaH2AX difference (Z-score)
1,"CCc1c(C(=O)OC)ncc2[nH]c3cc(OC)c(OC)cc3c12 [Methyl 6,7-dimethoxy-4-ethyl-beta-carboline-3-carboxylate] + C=CCn1c(=O)c2cnc(Nc3ccc(N4CCN(C)CC4)cc3)nc2n1-c1cccc(C(C)(C)O)n1 [MK1775]",inactive: -0.216
2,"CC(N)c1cccc(Cl)c1Cl (stereo not drawn) [(?)-2,3-Dichloro-alpha-methylbenzylamine hydrochloride] + C=CCn1c(=O)c2cnc(Nc3ccc(N4CCN(C)CC4)cc3)nc2n1-c1cccc(C(C)(C)O)n1 [MK1775]",inactive: -0.843
3,Cc1o[nH]c(=O)c1CC(N)C(=O)O (stereo unspecified) [(?)-AMPA hydrobromide] + C=CCn1c(=O)c2cnc(Nc3ccc(N4CCN(C)CC4)cc3)nc2n1-c1cccc(C(C)(C)O)n1 [MK1775],inactive: 0.25
4,CCN(CCCl)Cc1ccccc1Br [DSP-4 hydrochloride] + C=CCn1c(=O)c2cnc(Nc3ccc(N4CCN(C)CC4)cc3)nc2n1-c1cccc(C(C)(C)O)n1 [MK1775],inactive: -0.207
5,CNC(=O)Oc1ccc2c(c1)[C@]1(C)CCN(C)[C@@H]1N2C [(-)-Physostigmine] + C=CCn1c(=O)c2cnc(Nc3ccc(N4CCN(C)CC4)cc3)nc2n1-c1cccc(C(C)(C)O)n1 [MK1775],inactive: 0.537
6,CN(C)C(=O)Oc1cccc([N+](C)(C)C)c1 [Neostigmine bromide] + C=CCn1c(=O)c2cnc(Nc3ccc(N4CCN(C)CC4)cc3)nc2n1-c1cccc(C(C)(C)O)n1 [MK1775],inactive: 1.63
7,CNC(=O)OCC[N+](C)(C)C [Methylcarbamylcholine chloride] + C=CCn1c(=O)c2cnc(Nc3ccc(N4CCN(C)CC4)cc3)nc2n1-c1cccc(C(C)(C)O)n1 [MK1775],inactive: -0.0582
8,O=C(CCCN1CCC2(CC1)C(=O)N(CCc1ccc(N=C=S)cc1)CN2c1ccccc1)c1ccc(F)cc1 [N-(p-Isothiocyanatophenethyl)spiperone hydrochloride] + C=CCn1c(=O)c2cnc(Nc3ccc(N4CCN(C)CC4)cc3)nc2n1-c1cccc(C(C)(C)O)n1 [MK1775],inactive: 0.155
9,CP(=O)(O)CCCN + C=CCn1c(=O)c2cnc(Nc3ccc(N4CCN(C)CC4)cc3)nc2n1-c1cccc(C(C)(C)O)n1 [MK1775],inactive: -0.404
10,CNCC(O)c1ccc(O)cc1 (stereo unspecified) [(?)-Synephrine] + C=CCn1c(=O)c2cnc(Nc3ccc(N4CCN(C)CC4)cc3)nc2n1-c1cccc(C(C)(C)O)n1 [MK1775],inactive: -0.117
11,O=C(Cc1ccc(Cl)c(Cl)c1)N1CCCCC1CN1CCCC1 (stereo unspecified) + C=CCn1c(=O)c2cnc(Nc3ccc(N4CCN(C)CC4)cc3)nc2n1-c1cccc(C(C)(C)O)n1 [MK1775],inactive: -0.241
12,C#CCOC(=O)C1=CCCN(C)C1 [Arecaidine propargyl ester hydrobromide] + C=CCn1c(=O)c2cnc(Nc3ccc(N4CCN(C)CC4)cc3)nc2n1-c1cccc(C(C)(C)O)n1 [MK1775],inactive: -0.661
13,c1ccc(CCCN2CCN(CCOC(c3ccccc3)c3ccccc3)CC2)cc1 + C=CCn1c(=O)c2cnc(Nc3ccc(N4CCN(C)CC4)cc3)nc2n1-c1cccc(C(C)(C)O)n1 [MK1775],inactive: -0.0413
14,CC(C)C[C@H]1C(=O)N2CCC[C@H]2[C@]2(O)O[C@](NC(=O)[C@@H]3C=C4c5cccc6[nH]c(Br)c(c56)C[C@H]4N(C)C3)(C(C)C)C(=O)N12 [(+)-Bromocriptine methanesulfonate] + C=CCn1c(=O)c2cnc(Nc3ccc(N4CCN(C)CC4)cc3)nc2n1-c1cccc(C(C)(C)O)n1 [MK1775],inactive: 0.207
15,O=C(OC1CCN(CCCl)CC1)C(c1ccccc1)c1ccccc1 [4-Diphenylacetoxy-N-(2-chloroethyl)piperidine hydrochloride] + C=CCn1c(=O)c2cnc(Nc3ccc(N4CCN(C)CC4)cc3)nc2n1-c1cccc(C(C)(C)O)n1 [MK1775],inactive: 0.746
16,C=CCN1CC[C@]23c4c5ccc(O)c4O[C@H]2/C(=N/N=C2\CC[C@@]4(O)[C@H]6Cc7ccc(O)c8c7[C@@]4(CCN6CC=C)[C@H]2O8)CC[C@@]3(O)[C@H]1C5 [Naloxonazine dihydrochloride] + C=CCn1c(=O)c2cnc(Nc3ccc(N4CCN(C)CC4)cc3)nc2n1-c1cccc(C(C)(C)O)n1 [MK1775],inactive: -0.718
17,CN1[C@@H]2CC[C@H]1C[C@@H](OC(=O)C(CO)c1ccccc1)C2 (stereo partly specified) [Atropine sulfate] + C=CCn1c(=O)c2cnc(Nc3ccc(N4CCN(C)CC4)cc3)nc2n1-c1cccc(C(C)(C)O)n1 [MK1775],inactive: 0.143
18,c1ccc(C2CC2)c(OCC2=NCCN2)c1 [Cirazoline hydrochloride] + C=CCn1c(=O)c2cnc(Nc3ccc(N4CCN(C)CC4)cc3)nc2n1-c1cccc(C(C)(C)O)n1 [MK1775],inactive: 0.157
19,CN1[C@@H]2CC[C@H]1C[C@@H](OC(c1ccccc1)c1ccccc1N)C2 (stereo partly specified) [Aminobenztropine] + C=CCn1c(=O)c2cnc(Nc3ccc(N4CCN(C)CC4)cc3)nc2n1-c1cccc(C(C)(C)O)n1 [MK1775],inactive: -0.134
20,C[C@]12CCC(=O)C(O)=C1CC[C@@H]1[C@@H]2CC[C@]2(C)C(=O)CC[C@@H]12 [Formestane] + C=CCn1c(=O)c2cnc(Nc3ccc(N4CCN(C)CC4)cc3)nc2n1-c1cccc(C(C)(C)O)n1 [MK1775],inactive: -0.0303
21,Nc1ncnc2c1ncn2C1OC2COP(O)(=S)O[C@@H]2[C@@H]1O (stereo partly specified) [Rp-cAMPS triethylamine] + C=CCn1c(=O)c2cnc(Nc3ccc(N4CCN(C)CC4)cc3)nc2n1-c1cccc(C(C)(C)O)n1 [MK1775],inactive: -0.347
22,NCC(CP(=O)(O)O)c1ccc(Cl)cc1 (stereo unspecified) [Phaclofen] + C=CCn1c(=O)c2cnc(Nc3ccc(N4CCN(C)CC4)cc3)nc2n1-c1cccc(C(C)(C)O)n1 [MK1775],inactive: 1.78
23,N[C@@H](Cn1cc(I)c(=O)[nH]c1=O)C(=O)O [S-5-Iodowillardiine] + C=CCn1c(=O)c2cnc(Nc3ccc(N4CCN(C)CC4)cc3)nc2n1-c1cccc(C(C)(C)O)n1 [MK1775],inactive: 0.289

# Exported as tab-separated lines: part of the list above
row	Structure (SMILES)	Z' of S-phase gammaH2AX difference (Z-score)
11	O=S1(=O)N(CCN2CC=C(c3c[nH]c4cc(F)ccc34)CC2)c2cccc3c2N1CCC3 + C=CCn1c(=O)c2cnc(Nc3ccc(N4CCN(C)CC4)cc3)nc2n1-c1cccc(C(C)(C)O)n1 [MK1775]	inactive: -0.197
12	N#CC(C#N)=Cc1ccc([N+](=O)[O-])c(O)c1 [Tyrphostin AG 126] + C=CCn1c(=O)c2cnc(Nc3ccc(N4CCN(C)CC4)cc3)nc2n1-c1cccc(C(C)(C)O)n1 [MK1775]	inactive: -1.15
13	NCCCNCCSP(=O)(O)O [Amifostine] + C=CCn1c(=O)c2cnc(Nc3ccc(N4CCN(C)CC4)cc3)nc2n1-c1cccc(C(C)(C)O)n1 [MK1775]	inactive: 0.0301
14	Clc1ccc(N2CCN(Cc3c[nH]c4ncccc34)CC2)cc1 [L-745,870 hydrochloride] + C=CCn1c(=O)c2cnc(Nc3ccc(N4CCN(C)CC4)cc3)nc2n1-c1cccc(C(C)(C)O)n1 [MK1775]	inactive: 0.335

# Reference: the supplement of paper PMC5355238
